This is a selection; strong and weak results do not stand in their true shares. The calls were merged from several studies; some rest on single wells. The list shows a part of the results.
Key:
Conditions in all cases: stereoisomer not certain
UniProt Q8VGT4 = target: T1, UniProt Q8VGT4
T1 sequence (whole entry): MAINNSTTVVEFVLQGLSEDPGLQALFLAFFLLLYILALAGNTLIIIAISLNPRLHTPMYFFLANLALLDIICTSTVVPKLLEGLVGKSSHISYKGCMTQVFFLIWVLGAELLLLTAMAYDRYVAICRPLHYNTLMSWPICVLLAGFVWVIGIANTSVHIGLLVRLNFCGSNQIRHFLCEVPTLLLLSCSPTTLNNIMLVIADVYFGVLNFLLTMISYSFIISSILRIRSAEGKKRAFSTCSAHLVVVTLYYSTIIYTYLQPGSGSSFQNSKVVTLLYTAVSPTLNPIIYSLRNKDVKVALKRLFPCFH
How it was run: (§1)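 Each receptor–molecule pair is labelled responsive or non-responsive (inactive) according to whether the original authors judged the measured signal statistically different from baseline. The data were taken from the main text and supplementary material of published papers and checked for typos and inconsistencies. Assay methods differed by source, with transient luciferase assays in mammalian cell lines being common.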

UniProt Q8VGU3 = target: T2, UniProt Q8VGU3
T2 sequence (whole entry): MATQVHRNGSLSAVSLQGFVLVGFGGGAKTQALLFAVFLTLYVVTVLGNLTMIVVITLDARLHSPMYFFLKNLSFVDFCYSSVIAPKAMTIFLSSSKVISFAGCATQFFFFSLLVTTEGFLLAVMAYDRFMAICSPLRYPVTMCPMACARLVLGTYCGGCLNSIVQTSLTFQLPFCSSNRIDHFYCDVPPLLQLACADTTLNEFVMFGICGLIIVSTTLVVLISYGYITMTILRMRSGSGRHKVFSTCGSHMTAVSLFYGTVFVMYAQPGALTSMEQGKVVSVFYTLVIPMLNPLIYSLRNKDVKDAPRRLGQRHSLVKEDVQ
How it was run: as §1

UniProt Q8VGV1 = target: T3, UniProt Q8VGV1
T3 sequence (whole entry): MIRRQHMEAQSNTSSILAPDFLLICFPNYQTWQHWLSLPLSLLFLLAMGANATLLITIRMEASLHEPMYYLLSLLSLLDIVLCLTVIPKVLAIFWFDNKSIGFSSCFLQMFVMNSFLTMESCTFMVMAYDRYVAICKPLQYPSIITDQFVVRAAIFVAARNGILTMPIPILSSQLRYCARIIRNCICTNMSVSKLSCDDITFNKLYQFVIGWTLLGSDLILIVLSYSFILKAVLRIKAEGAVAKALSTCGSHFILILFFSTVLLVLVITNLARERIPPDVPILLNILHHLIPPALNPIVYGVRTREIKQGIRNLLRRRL
How it was run: as §1

UniProt Q8VGV7 = target: T4, UniProt Q8VGV7
T4 sequence (whole entry): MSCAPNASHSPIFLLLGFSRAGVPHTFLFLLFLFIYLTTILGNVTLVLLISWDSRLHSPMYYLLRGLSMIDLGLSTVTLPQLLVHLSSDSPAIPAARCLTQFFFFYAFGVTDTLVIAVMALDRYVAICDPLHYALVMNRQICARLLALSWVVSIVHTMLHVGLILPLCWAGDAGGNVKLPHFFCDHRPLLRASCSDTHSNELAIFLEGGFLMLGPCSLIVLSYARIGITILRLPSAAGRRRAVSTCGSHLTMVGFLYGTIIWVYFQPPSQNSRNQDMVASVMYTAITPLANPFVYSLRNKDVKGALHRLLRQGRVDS
How it was run: as §1

UniProt Q8VGW5 = target: T5, UniProt Q8VGW5
T5 sequence (whole entry): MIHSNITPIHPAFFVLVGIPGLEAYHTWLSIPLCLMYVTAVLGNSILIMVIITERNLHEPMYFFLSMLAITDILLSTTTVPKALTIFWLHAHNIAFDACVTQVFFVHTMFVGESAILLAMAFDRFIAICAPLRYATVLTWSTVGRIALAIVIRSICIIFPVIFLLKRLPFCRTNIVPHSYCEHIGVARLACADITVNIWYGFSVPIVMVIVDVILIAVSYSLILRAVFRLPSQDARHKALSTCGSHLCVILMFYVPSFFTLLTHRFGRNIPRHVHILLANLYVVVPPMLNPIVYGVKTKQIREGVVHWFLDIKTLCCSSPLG
How it was run: as §1

UniProt Q8VGX3 = target: T6, UniProt Q8VGX3
T6 sequence (whole entry): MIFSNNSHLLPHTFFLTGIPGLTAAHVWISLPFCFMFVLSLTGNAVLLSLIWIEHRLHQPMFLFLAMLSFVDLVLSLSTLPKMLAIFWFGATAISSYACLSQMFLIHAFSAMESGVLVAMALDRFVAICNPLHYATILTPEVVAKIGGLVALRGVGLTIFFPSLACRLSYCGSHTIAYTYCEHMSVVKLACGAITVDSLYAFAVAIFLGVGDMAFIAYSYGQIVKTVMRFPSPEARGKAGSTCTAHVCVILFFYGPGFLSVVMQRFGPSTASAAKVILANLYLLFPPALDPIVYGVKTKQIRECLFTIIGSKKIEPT
How it was run: as §1

UniProt Q8VGX5 = target: T7, UniProt Q8VGX5
T7 sequence (whole entry): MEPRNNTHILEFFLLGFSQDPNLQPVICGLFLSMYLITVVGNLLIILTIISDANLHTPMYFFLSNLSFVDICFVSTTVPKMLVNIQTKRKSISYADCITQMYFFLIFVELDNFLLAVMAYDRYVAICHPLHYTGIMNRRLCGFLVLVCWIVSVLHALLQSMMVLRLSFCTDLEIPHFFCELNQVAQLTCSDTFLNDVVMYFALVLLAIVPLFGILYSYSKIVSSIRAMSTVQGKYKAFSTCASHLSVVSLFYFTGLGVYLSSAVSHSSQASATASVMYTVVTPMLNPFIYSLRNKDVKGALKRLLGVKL
How it was run: as §1

UniProt Q8VGX8 = target: T8, UniProt Q8VGX8
T8 sequence (whole entry): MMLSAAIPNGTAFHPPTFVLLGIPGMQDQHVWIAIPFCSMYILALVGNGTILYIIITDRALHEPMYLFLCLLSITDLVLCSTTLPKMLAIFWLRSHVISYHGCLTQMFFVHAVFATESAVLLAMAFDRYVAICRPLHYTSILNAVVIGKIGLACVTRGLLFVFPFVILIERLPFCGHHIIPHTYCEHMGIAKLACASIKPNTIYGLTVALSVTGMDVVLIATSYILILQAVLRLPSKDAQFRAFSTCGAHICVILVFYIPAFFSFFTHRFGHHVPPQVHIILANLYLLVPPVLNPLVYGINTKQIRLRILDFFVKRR
How it was run: as §1

UniProt Q8VGY6 = target: T9, UniProt Q8VGY6
T9 sequence (whole entry): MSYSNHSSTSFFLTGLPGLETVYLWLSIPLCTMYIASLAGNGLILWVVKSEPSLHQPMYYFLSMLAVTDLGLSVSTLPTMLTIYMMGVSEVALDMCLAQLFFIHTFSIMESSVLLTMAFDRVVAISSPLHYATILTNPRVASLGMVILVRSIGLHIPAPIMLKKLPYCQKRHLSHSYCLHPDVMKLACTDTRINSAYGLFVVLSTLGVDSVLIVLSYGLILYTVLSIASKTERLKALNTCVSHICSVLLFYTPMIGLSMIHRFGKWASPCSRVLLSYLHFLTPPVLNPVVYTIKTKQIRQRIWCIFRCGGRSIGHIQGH
How it was run: as §1

UniProt Q8VGZ2 = target: T10, UniProt Q8VGZ2
T10 sequence (whole entry): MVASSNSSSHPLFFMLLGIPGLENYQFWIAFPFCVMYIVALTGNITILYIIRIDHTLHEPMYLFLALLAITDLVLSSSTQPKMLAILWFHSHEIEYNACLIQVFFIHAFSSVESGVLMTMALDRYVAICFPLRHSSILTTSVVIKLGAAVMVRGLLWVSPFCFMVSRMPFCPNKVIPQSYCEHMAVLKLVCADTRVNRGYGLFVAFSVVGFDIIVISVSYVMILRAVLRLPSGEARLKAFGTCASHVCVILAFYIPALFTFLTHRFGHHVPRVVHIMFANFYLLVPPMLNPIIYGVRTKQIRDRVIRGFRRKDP
How it was run: as §1

UniProt Q8VGZ7 = target: T11, UniProt Q8VGZ7
T11 sequence (whole entry): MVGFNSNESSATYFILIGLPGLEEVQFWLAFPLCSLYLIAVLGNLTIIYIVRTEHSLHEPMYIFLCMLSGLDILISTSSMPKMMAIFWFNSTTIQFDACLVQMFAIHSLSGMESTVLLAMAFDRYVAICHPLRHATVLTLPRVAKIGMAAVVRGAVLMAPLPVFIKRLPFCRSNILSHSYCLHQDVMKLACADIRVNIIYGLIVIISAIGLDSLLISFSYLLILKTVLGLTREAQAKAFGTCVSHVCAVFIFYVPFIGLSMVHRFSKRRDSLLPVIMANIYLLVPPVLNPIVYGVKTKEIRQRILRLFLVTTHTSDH
How it was run: as §1

UniProt Q8VH10 = target: T12, UniProt Q8VH10
T12 sequence (whole entry): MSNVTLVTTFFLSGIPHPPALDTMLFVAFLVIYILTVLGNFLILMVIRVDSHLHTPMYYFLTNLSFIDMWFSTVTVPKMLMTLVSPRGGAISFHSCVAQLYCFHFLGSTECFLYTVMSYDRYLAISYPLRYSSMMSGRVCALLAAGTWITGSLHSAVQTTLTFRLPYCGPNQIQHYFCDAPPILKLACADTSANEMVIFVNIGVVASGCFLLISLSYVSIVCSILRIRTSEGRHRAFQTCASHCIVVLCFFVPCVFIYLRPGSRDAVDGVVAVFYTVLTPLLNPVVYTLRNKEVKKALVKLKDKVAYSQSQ
How it was run: as §1

UniProt Q8VH16 = target: T13, UniProt Q8VH16
T13 sequence (whole entry): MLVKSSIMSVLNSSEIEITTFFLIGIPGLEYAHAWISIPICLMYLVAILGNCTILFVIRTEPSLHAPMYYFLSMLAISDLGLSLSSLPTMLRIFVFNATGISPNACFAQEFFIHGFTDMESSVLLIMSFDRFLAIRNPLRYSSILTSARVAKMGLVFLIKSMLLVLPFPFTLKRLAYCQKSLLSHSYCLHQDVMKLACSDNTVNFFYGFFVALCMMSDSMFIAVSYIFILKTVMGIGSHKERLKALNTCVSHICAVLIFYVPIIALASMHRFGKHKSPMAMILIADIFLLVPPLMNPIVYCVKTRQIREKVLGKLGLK
How it was run: as §1

UniProt Q8VH18 = target: T14, UniProt Q8VH18
T14 sequence (whole entry): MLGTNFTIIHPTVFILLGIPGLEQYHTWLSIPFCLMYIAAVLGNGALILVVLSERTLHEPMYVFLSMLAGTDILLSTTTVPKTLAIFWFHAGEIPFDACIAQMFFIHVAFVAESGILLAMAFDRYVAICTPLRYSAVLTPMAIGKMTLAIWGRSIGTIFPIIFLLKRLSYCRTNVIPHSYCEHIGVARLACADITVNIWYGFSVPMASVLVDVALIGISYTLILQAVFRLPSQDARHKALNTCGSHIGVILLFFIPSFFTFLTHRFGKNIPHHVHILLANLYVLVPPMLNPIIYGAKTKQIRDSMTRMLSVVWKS
How it was run: as §1

UniProt Q8VH20 = target: T15, UniProt Q8VH20
T15 sequence (whole entry): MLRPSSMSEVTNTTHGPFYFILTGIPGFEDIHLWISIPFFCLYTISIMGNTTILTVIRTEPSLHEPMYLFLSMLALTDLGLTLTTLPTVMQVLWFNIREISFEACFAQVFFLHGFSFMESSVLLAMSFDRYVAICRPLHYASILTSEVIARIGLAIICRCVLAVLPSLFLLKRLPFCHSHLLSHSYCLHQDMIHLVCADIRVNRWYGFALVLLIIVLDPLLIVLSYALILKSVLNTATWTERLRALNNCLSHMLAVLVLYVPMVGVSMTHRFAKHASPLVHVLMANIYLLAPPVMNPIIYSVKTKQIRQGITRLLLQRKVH
How it was run: as §1

UniProt Q8VH21 = target: T16, UniProt Q8VH21
T16 sequence (whole entry): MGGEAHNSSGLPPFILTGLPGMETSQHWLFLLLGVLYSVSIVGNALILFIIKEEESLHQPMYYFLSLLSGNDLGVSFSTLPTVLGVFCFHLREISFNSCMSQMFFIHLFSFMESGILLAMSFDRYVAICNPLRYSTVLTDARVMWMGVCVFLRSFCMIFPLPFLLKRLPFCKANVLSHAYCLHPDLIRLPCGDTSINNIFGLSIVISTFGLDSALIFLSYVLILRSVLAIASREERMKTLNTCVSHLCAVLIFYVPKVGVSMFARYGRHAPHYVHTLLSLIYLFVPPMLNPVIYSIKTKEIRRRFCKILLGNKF
How it was run: as §1

UniProt Q924H8 = target: T17, UniProt Q924H8
T17 sequence (whole entry): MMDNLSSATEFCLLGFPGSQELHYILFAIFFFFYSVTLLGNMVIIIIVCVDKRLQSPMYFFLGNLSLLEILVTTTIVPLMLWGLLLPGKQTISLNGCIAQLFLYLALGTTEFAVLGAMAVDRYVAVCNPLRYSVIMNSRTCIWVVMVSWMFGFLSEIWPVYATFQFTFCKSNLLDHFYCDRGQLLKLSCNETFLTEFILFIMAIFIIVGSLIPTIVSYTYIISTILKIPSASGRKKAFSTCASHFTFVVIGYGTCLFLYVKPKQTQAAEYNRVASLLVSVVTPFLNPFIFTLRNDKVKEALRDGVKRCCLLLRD
How it was run: as §1
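Also: active if original authors judged signal statistically different from baseline.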

Compound	odorant receptor agonist call (UniProt Q8VGT4)	odorant receptor agonist call (UniProt Q8VGU3)	odorant receptor agonist call (UniProt Q8VGV1)	odorant receptor agonist call (UniProt Q8VGV7)	odorant receptor agonist call (UniProt Q8VGW5)	odorant receptor agonist call (UniProt Q8VGX3)	odorant receptor agonist call (UniProt Q8VGX5)	odorant receptor agonist call (UniProt Q8VGX8)	odorant receptor agonist call (UniProt Q8VGY6)	odorant receptor agonist call (UniProt Q8VGZ2)	odorant receptor agonist call (UniProt Q8VGZ7)	odorant receptor agonist call (UniProt Q8VH10)	odorant receptor agonist call (UniProt Q8VH16)	odorant receptor agonist call (UniProt Q8VH18)	odorant receptor agonist call (UniProt Q8VH20)	odorant receptor agonist call (UniProt Q8VH21)	odorant receptor agonist call (UniProt Q924H8)
CCCCCCC=O	inactive	inactive	inactive	inactive	inactive	inactive	inactive	inactive	inactive	inactive	inactive	inactive	inactive	inactive	inactive	inactive	inactive
O=C1CCCCC1	active	–	inactive	–	–	–	active	inactive	inactive	inactive	inactive	inactive	–	–	inactive	–	–
CC(C)C=O	–	inactive	–	inactive	–	inactive	inactive	–	–	inactive	inactive	–	inactive	–	inactive	inactive	inactive

Reference: the M2OR odorant receptor database
